{"source": "patent US20050032096A1", "about": "“Methods for predicting drug sensitivity in patients afflicted with hypertension” (deCODE genetics ehf., priority 2003, published 2005)", "origin": "cited, not measured here", "key": {"[1]": {"tested_on": "patients with chronic stable angina", "details": "cited from earlier work"}, "[2]": {"tested_on": "patients with advanced CHF", "details": "compared to placebo; advanced CHF patients already taking ACE inhibitors, diuretics and digitalis; cited from earlier work"}, "[3]": {"tested_on": "dihydropyridine and nondihydropyridine binding sites", "details": "experimental data suggest; cited from earlier work"}, "[4]": {"tested_on": "patients with CHD", "details": "in vivo; cited from earlier work"}, "[5]": {"tested_on": "patients with hypertension", "details": "chronic once daily oral administration; cited from earlier work"}}, "note": "At least one structure is not confirmed: it was looked up by name or label, or the drawing left a doubt.", "data": [{"smiles": "CCOC(=O)C1=C(COCCN)NC(C)=C(C(=O)OC)C1c1ccccc1Cl", "note": "(stereo not drawn) [Norvasc, amlodipine]", "values": [{"measurement": "patients reporting improved ability to perform usual physical activities", "setting": "[1]; 8 weeks, 5 mg/day titrated to 10 mg, placebo 59%, P=0.003", "value": 75, "unit": "%"}, {"measurement": "angina attacks", "setting": "[1]; versus placebo", "value": "significantly reduced"}, {"measurement": "nitroglycerin consumption", "setting": "[1]; versus placebo", "value": "significantly reduced"}, {"measurement": "reduced incidence of pump failure deaths", "setting": "[2]", "value": 6.6, "unit": "%"}, {"measurement": "reduced incidence of sudden deaths", "setting": "[2]", "value": 21, "unit": "%"}, {"measurement": "binding sites bound", "setting": "[3]", "value": "binds to both dihydropyridine and nondihydropyridine binding sites"}, {"measurement": "reduction of hospitalization rate for severe angina", "setting": "[4]", "value": 35, "unit": "%"}, {"measurement": "reduction of need for angioplasty and coronary artery bypass grafting", "setting": "[4]", "value": 46, "unit": "%"}, {"measurement": "time anti-hypertensive effectiveness is maintained", "setting": "[5]", "value": "at least 24 hours"}]}]}
